According to US20060275213 (published 2006):

Experiment: general procedure: Fmoc solid-phase peptide synthesis; Wang resin (Applied Biosystems), 0.5 mmol/g

Substance | step yield (late stage modification step) [%] | isolated yield (whole synthesis, on serine resin loading reported by manufacturer, scale of the general procedure approximately 1 mmol) [%]
AHX-DIREK, CYCLIC BY VIRTUE OF A LACTAM BRIDGE | 45 | –
BIO-LRELS | – | 29
